Assay results as given in paper PMC5354776.
Results are given in words; binding and its absence hold for the method and conditions named. Binding seen in cells or lysates may run through a third protein. Some results given as binding are weak or reduced against the parent protein; the word gives no strength.

By UniProt entry, the sequences of proteins in these tests, tags left out. Where a name states a change or a piece, a line headed by the entry shows the natural chain unless it says otherwise.
UniProt Q15691: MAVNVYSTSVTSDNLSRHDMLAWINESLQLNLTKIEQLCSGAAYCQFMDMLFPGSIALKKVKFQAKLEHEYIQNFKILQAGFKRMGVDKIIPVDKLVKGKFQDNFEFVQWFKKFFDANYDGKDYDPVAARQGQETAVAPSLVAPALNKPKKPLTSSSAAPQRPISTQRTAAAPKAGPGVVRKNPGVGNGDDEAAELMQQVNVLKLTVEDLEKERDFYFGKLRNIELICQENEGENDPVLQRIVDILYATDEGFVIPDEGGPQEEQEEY

Legend:
Assay in all cases: co-IP; HA-EB1 WT, 3A or 3D immunoprecipitated from lysates of transfected cells with antibody-coated agarose beads, 4°C, 2 h; immunoblot for p150^glued and CLIP-170
[1] = target: HA-EB1 3D (phospho-mimetic mutant S40D/T154D/T206D) (UniProt Q15691)
[2] = target: HA-EB1 WT (end-binding protein 1, wild type) (UniProt Q15691)
[3] = target: HA-EB1 3A (phospho-deficient mutant S40A/T154A/T206A) (UniProt Q15691)

- binding [1]: binds
- binding [2]: binds
- binding [3]: binds
Substance: p150^glued, endogenous (from UniProt Q14203-1 1-1278)
